According to paper PMC8526623:
Results are given in words; binding and its absence hold for the method and conditions named. In cells and extracts the contact can be indirect. A yes stands for co-enrichment or nearness to the bait. Other partners may have been found.

Protein sequences, listed by entry. Tags and fused reporters are not part of them.
UniProt Q92576: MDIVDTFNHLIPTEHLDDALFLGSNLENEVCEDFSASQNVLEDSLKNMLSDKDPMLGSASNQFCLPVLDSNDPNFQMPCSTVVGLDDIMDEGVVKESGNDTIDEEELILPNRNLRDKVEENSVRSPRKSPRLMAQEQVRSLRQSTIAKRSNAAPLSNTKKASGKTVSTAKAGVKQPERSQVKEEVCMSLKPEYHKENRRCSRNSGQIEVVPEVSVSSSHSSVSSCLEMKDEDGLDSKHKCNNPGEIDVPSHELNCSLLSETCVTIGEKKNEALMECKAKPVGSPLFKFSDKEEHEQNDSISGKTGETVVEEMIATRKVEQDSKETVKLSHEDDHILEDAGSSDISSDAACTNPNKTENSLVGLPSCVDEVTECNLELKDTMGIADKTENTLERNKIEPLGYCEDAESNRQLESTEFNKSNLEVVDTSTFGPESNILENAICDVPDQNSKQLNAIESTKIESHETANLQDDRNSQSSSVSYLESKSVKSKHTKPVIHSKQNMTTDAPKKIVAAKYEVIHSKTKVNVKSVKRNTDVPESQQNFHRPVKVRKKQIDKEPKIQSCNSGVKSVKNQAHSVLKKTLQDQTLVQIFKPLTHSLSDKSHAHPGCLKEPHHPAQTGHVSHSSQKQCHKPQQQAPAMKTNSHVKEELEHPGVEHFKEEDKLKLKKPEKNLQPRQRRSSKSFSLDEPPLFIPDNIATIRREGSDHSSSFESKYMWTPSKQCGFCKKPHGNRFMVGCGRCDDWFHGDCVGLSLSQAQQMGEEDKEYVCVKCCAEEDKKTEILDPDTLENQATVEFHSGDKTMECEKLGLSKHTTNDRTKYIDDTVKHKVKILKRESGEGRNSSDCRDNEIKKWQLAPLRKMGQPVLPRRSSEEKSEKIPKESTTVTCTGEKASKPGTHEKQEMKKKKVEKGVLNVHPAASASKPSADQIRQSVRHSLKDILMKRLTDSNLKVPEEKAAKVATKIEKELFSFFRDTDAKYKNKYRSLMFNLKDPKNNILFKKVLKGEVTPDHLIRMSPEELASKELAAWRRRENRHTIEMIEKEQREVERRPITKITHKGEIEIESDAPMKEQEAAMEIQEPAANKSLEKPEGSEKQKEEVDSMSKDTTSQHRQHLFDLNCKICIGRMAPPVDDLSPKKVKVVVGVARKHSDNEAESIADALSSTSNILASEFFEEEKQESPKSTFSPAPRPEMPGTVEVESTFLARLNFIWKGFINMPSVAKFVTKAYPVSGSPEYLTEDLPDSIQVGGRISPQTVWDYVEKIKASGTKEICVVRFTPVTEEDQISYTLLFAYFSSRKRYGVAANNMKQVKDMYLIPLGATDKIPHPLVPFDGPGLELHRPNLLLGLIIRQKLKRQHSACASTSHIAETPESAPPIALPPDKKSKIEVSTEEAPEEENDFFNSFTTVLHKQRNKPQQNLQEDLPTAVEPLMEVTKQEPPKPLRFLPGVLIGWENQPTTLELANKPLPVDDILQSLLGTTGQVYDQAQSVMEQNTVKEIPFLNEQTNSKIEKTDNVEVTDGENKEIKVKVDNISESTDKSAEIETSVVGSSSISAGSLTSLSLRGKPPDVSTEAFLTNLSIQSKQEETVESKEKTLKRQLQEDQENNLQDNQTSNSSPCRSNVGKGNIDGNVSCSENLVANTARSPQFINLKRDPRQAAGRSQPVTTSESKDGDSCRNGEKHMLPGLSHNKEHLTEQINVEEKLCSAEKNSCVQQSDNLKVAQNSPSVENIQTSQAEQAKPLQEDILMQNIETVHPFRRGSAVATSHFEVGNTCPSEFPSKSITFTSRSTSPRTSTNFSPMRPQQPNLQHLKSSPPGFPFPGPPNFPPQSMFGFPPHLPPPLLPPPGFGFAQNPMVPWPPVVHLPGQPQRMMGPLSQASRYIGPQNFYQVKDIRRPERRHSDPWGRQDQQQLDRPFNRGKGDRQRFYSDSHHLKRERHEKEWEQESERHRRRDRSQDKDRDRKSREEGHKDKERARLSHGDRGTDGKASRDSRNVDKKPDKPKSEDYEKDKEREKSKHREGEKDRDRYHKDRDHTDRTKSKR

B1: RBM15 (protein, UniProt Q96T37 1-977)
chain: MRTAGRDPVPRRSPRWRRAVPLCETSAGRRVTQLRGDDLRRPATMKGKERSPVKAKRSRGGEDSTSRGERSKKLGGSGGSNGSSSGKTDSGGGSRRSLHLDKSSSRGGSREYDTGGGSSSSRLHSYSSPSTKNSSGGGESRSSSRGGGGESRSSGAASSAPGGGDGAEYKTLKISELGSQLSDEAVEDGLFHEFKRFGDVSVKISHLSGSGSGDERVAFVNFRRPEDARAAKHARGRLVLYDRPLKIEAVYVSRRRSRSPLDKDTYPPSASVVGASVGGHRHPPGGGGGQRSLSPGGAALGYRDYRLQQLALGRLPPPPPPPLPRDLERERDYPFYERVRPAYSLEPRVGAGAGAAPFREVDEISPEDDQRANRTLFLGNLDITVTESDLRRAFDRFGVITEVDIKRPSRGQTSTYGFLKFENLDMSHRAKLAMSGKIIIRNPIKIGYGKATPTTRLWVGGLGPWVPLAALAREFDRFGTIRTIDYRKGDSWAYIQYESLDAAHAAWTHMRGFPLGGPDRRLRVDFADTEHRYQQQYLQPLPLTHYELVTDAFGHRAPDPLRGARDRTPPLLYRDRDRDLYPDSDWVPPPPPVRERSTRTAATSVPAYEPLDSLDRRRDGWSLDRDRGDRDLPSSRDQPRKRRLPEESGGRHLDRSPESDRPRKRHCAPSPDRSPELSSSRDRYNSDNDRSSRLLLERPSPIRDRRGSLEKSQGDKRDRKNSASAERDRKHRTTAPTEGKSPLKKEDRSDGSAPSTSTASSKLKSPSQKQDGGTAPVASASPKLCLAWQGMLLLKNSNFPSNMHLLQGDLQVASSLLVEGSTGGKVAQLKITQRLRLDQPKLDEVTRRIKVAGPNGYAILLAVPGSSDSRSSSSSAASDTATSTQRPLRNLVSYLKQKQAAGVISLPVGGNKDKENTGVLHAFPPCEFSQQFLDSPAKALAKSEEDYLVMIIVRGFGFQIGVRYENKKRENLALTLL
B2: ZNF326 (protein, UniProt Q5BKZ1 1-582)
chain: MDFEDDYTHSACRNTYQGFNGMDRDYGPGSYGGMDRDYGHGSYGGQRSMDSYLNQSYGMDNHSGGGGGSRFGPYESYDSRSSLGGRDLYRSGYGFNEPEQSRFGGSYGGRFESSYRNSLDSFGGRNQGGSSWEAPYSRSKLRPGFMEDRGRENYSSYSSFSSPHMKPAPVGSRGRGTPAYPESTFGSRNYDAFGGPSTGRGRGRGHMGDFGSIHRPGIVVDYQNKSTNVTVAAARGIKRKMMQPFNKPSGTFIKKPKLAKPMEKISLSKSPTKTDPKNEEEEKRRIEARREKQRRRREKNSEKYGDGYRMAFTCSFCKFRTFEEKDIELHLESSSHQETLDHIQKQTKFDKVVMEFLHECMVNKFKKTSIRKQQTNNQTEVVKIIEKDVMEGVTVDDHMMKVETVHCSACSVYIPALHSSVQQHLKSPDHIKGKQAYKEQIKRESVLTATSILNNPIVKARYERFVKGENPFEIQDHSQDQQIEGDEEDEEKIDEPIEEEEDEDEEEEAEEVGEVEEVEEVEEVREGGIEGEGNIQGVGEGGEVGVVGEVEGVGEVEEVEELEEETAKEEPADFPVEQPEEN

Target: FLAG-PHF3 (PHD-finger protein 3) (human) (UniProt Q92576)
Test: affinity purification with mass spectrometry; FLAG-PHF3 expressed in HEK293T; anti-FLAG M2 magnetic beads, lysate with benzonase; empty vector as control; SAINT-MS1

Binder | binding
B1 | binds
B2 | binds
